PubChem BioAssay AID504786 – Drosophila RNAi Screening Center, 2011

Aim: 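Positive regulators of HIF-driven reporter output in Drosophila cells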 (primary screen)
Cell system: Drosophila S2 cells with a stable HIF luciferase reporter
Knock-down reagent: long dsRNA against Drosophila genes, about 0.2 µg dsRNA per well of a 384-well plate
Duration: three days of knock-down, then 20 h of DFO before reading
Conditions: desferrioxamine (DFO) at 100 µM, an iron chelator that mimics hypoxia, for 20 h
Measurement: 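HIF reporter luminescence in cells given 100 µM DFO for 20 h, using the mouse ldh-a hypoxia-response element, scored as per-plate z-scores; higher means greater loss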
Direction: z-score: higher = stronger loss of HIF reporter signal
The deposit covers about 21,000 reagents; this is an unselected part of those that have a named target and a result. 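Primary screen; positive scores mean lost reporter signal, so the sign may be inverted from the usual convention.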 Names joined by + are all predicted targets of the reagent. Not all columns of the deposit are shown. Reagent sequences are not shown.

Target gene | dsRNA | z-score, replicate 1
h-cup | DRSC15973 | -0.1
CG34426 | DRSC09977 | -0.1
CG13332 | DRSC06367 | -0.2
Vha16-3 | DRSC10872 | -0.3
CG3223 | DRSC15468 | 0
CG3746 | DRSC04412 | -0.4
Spn43Ad | DRSC06770 | -0.3
Cyt-c-d | DRSC03309 | 1.1
CG9578 | DRSC20694 | -0.3
CG34452 | DRSC09387 | 0.2
CG12641 (retired record) | DRSC17848 | 1.8
CG4459 | DRSC15582 | -1.1
mRpL28 | DRSC02724 | 1.5
DCTN1-p150 | DRSC11175 | -0.3
serp | DRSC11035 | -0.3
serp | DRSC11036 | -0.2
sol | DRSC20587 | -0.3
CG4907 | DRSC15673 | -0.1
Klc | DRSC11203 | -0.3
maca | DRSC15738 | 1.2
HisT | DRSC05051 | 0
HisT | DRSC05052 | 0.6
HisT | DRSC06405 | 0.6
mth | DRSC08725 | -0.1
Slc25A46a | DRSC20125 | -0.1
CG9839 | DRSC16574 | -0.4
Rpp20 + CG33932 | DRSC19467 | 0.2
eag | DRSC19067 | -0.3
eag | DRSC20328 | -0.3
MCTS1 | DRSC18393 | -0.2
Dsp1 | DRSC20315 | 7.1
msb1l | DRSC03572 | -0.3
CG2887 | DRSC18235 | -0.4
Tl | DRSC16885 | -0.3
CG15625 | DRSC00460 | -0.1
CG9593 | DRSC16508 | -0.5
Ice2 | DRSC14268 | -0.2
Cyp6a9 | DRSC07385 | -0.4
Mtpbeta | DRSC04663 | -0.3
zip | DRSC04725 | -0.4
CG10063 | DRSC09688 | -0.4
soti | DRSC16432 | -0.3
msd5 | DRSC08560 | -0.3
CG15209 | DRSC19655 | -0.2
fidipidine | DRSC07618 | -0.3
Sfp53D | DRSC05625 | 0.1
CG46298 | DRSC06222 | -0.2
Pcyt1 | DRSC08157 | 0.1
CG18735 | DRSC04312 | -0.3
CG2120 | DRSC18207 | -0.3
cindr | DRSC14126 | -0.2
cindr | DRSC14298 | -0.2
Ir76b | DRSC10831 | -0.3
Leash | DRSC15617 | -0.4
CG9328 | DRSC03203 | -0.2
Mal-A2 | DRSC07460 | -0.3
CG10053 | DRSC12502 | -0.4
CG42697 | DRSC05740 | -1
MED26 | DRSC17126 | -0.4
MED26 | DRSC17147 | -0.4
MED26 | DRSC17148 | -0.4
Irk3 | DRSC02047 | -0.2
CG13458 | DRSC10005 | -0.3
Usp16-45 | DRSC18352 | -0.3
Med | DRSC16737 | -0.4
Bub1 | DRSC02357 | -0.2
Cpr65Eb | DRSC11026 | -0.3
CG3038 | DRSC18618 | -0.3
Ype | DRSC20301 | 0.1
CG4438 | DRSC02746 | -0.3
CG18635 | DRSC06780 | -0.9
Eig71Eb | DRSC11149 | -0.3
Rabex-5 | DRSC08628 | -0.2
CG2070 | DRSC06814 | 0
CG14618 | DRSC20631 | -0.3
CG13215 | DRSC06337 | -0.1
CG8507 | DRSC16435 | -0.3
CG4116 | DRSC18348 | -0.3
GlyRS | DRSC10711 | -0.2
CG1971 | DRSC15406 | -0.2
CNT1 | DRSC06082 | -0.2
CG30467 | DRSC07097 | 0
CG10737 | DRSC05999 | -0.2
Tsp42Eh | DRSC06190 | -0.3
sbr | DRSC19770 | 0.7
sbr | DRSC20368 | 4.1
CG4483 | DRSC10426 | -0.3
Atg8a | DRSC18024 | -0.3
CG15120 | DRSC06542 | -0.1
CR33317 | DRSC02653 | -0.2
sktl | DRSC04715 | -0.4
Cpr56F | DRSC07326 | -0.2
CG32170 | DRSC09452 | 0.1
dj | DRSC12625 | -0.1
apn | DRSC15124 | -0.4
jet | DRSC03116 | -0.3
Cerk | DRSC12285 | -0.4
CG13539 | DRSC04181 | -0.4
CG15082 | DRSC06513 | 0
RhoU | DRSC17635 | -0.4
RhoU | DRSC17803 | -0.2
RhoU | DRSC17804 | -0.2
Rbbp5 + CG6434 (retired record) | DRSC10635 | -0.3
CG8757 | DRSC11039 | -0.3
Dscam1 | DRSC05047 | -0.2
Dscam1 | DRSC05048 | -0.1
Dscam1 | DRSC07407 | -0.2

No new results follow: entries from further up.
Target gene | dsRNA | z-score, replicate 1
Pcyt1 | DRSC08157 | 0.1
CG18735 | DRSC04312 | -0.3
CG2120 | DRSC18207 | -0.3
cindr | DRSC14126 | -0.2
cindr | DRSC14298 | -0.2
Ir76b | DRSC10831 | -0.3
Leash | DRSC15617 | -0.4
CG9328 | DRSC03203 | -0.2
Mal-A2 | DRSC07460 | -0.3
CG10053 | DRSC12502 | -0.4
CG42697 | DRSC05740 | -1
MED26 | DRSC17126 | -0.4
MED26 | DRSC17147 | -0.4
MED26 | DRSC17148 | -0.4
Irk3 | DRSC02047 | -0.2
CG13458 | DRSC10005 | -0.3
